PubChem BioAssay AID504808 – Drosophila RNAi Screening Center, 2011

Test: 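Fly genes required to hold E2F transcription in check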 (primary screen)
Cell system: Drosophila S2 cells
Reagent: long dsRNA against Drosophila genes
Measured: 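Firefly luciferase driven by E2F sites, normalised to Renilla luciferase on the same minimal promoter, measured by plate reader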
Direction: E2F firefly: higher = more E2F reporter activity; Renilla normaliser: higher = more normaliser reporter signal
Active means: 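a knock-down counted as active when the firefly/Renilla E2F signal rose above 50%, a threshold chosen arbitrarily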
The deposit covers about 21,000 reagents; this is a random part of those that have a named target and a result. Of all reagents, 18 (0.084%) got an active call. 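Raw counts without plate normalisation, one of two replicates; the ratio scores behind the calls were not deposited.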 Not given: the amount of reagent, the time to read-out.

Depletion of CG34026 (GeneID 3885569) [DRSC17616] came out at: E2F firefly, rep 1 = 93375; Renilla normaliser, rep 1 = 2962; inactive.
Against CG6216 (GeneID 39257) [DRSC10606], the values are E2F firefly, rep 1 = 1.24e5; Renilla normaliser, rep 1 = 6980; inactive.
With knock-down of CG1671 (GeneID 36019) [DRSC06617], the record shows E2F firefly, rep 1 = 2808; Renilla normaliser, rep 1 = 209; inactive.
CG15147 (GeneID 35069) [DRSC02447] gave E2F firefly, rep 1 = 93534; Renilla normaliser, rep 1 = 4211; inactive.
With knock-down of CG15147 (GeneID 35069) [DRSC02448] the results were E2F firefly, rep 1 = 1.01e5; Renilla normaliser, rep 1 = 4606; inactive.
CG6901 (GeneID 41977) [DRSC16129] scored E2F firefly, rep 1 = 1.09e5; Renilla normaliser, rep 1 = 6157; inactive.
For sff (GeneID 39732) [DRSC10590], the entry reads E2F firefly, rep 1 = 67199; Renilla normaliser, rep 1 = 3778; inactive.
Silencing of CG15537 (GeneID 43614) [DRSC15073] gave: E2F firefly, rep 1 = 1.32e5; Renilla normaliser, rep 1 = 6068; inactive.
With knock-down of Ntl (GeneID 34046) [DRSC03003] the results were E2F firefly, rep 1 = 51479; Renilla normaliser, rep 1 = 2847; inactive.
For I-3 (GeneID 33068) [DRSC20479] the deposit lists E2F firefly, rep 1 = 1.33e5; Renilla normaliser, rep 1 = 7830; inactive.
For Lpin (GeneID 35790) [DRSC07241], the entry reads E2F firefly, rep 1 = 2824; Renilla normaliser, rep 1 = 217; inactive.
CG11438 (GeneID 40469) [DRSC11660] showed E2F firefly, rep 1 = 1.34e5; Renilla normaliser, rep 1 = 6882; inactive.

An excerpt taken from the entries so far, as a working copy:
Ntl (GeneID 34046) [DRSC03003] → E2F firefly, rep 1: 51479; Renilla normaliser, rep 1: 2847; call: inactive
I-3 (GeneID 33068) [DRSC20479] → E2F firefly, rep 1: 1.33e5; Renilla normaliser, rep 1: 7830; call: inactive

Further records:
After knock-down of Rrp42 (GeneID 36766) [DRSC07161] the results were E2F firefly, rep 1 = 1.43e5; Renilla normaliser, rep 1 = 5956; inactive.
Silencing of CG5762 (GeneID 42907) [DRSC15869] resulted in: E2F firefly, rep 1 = 58121; Renilla normaliser, rep 1 = 3150; inactive.
Knock-down of betaTub97EF (GeneID 43359) [DRSC15666] came out at: E2F firefly, rep 1 = 1.01e5; Renilla normaliser, rep 1 = 5594; inactive.
Against betaTub97EF (GeneID 43359) [DRSC15667] the deposit lists E2F firefly, rep 1 = 1.10e5; Renilla normaliser, rep 1 = 5679; inactive.
Against betaTub97EF (GeneID 43359) [DRSC15668], the values are E2F firefly, rep 1 = 1.18e5; Renilla normaliser, rep 1 = 5774; inactive.
After knock-down of Spf45 (GeneID 3355114) [DRSC03826], the screen gave E2F firefly, rep 1 = 1.11e5; Renilla normaliser, rep 1 = 4872; inactive.
After knock-down of CG8136 (GeneID 41037) [DRSC16385], the record shows E2F firefly, rep 1 = 1.29e5; Renilla normaliser, rep 1 = 6556; inactive.
